Experimental data: the supplement of paper PMC3334620
In all, about 33,000 sequences were measured (“E-score (-0.5 to 0.5)”: median about -0.016, highest 2% from about 0.3 on). This is one part of the list.

The sequences below were run against T1, Yer184c (UniProt P39961) (assay: PBM E-score (8-mer binding enrichment) (E-score (-0.5 to 0.5)); higher = stronger / more preferred TF binding). Conditions: protein concentration: 100 nM; construct: GST-full length.
T1 sequence: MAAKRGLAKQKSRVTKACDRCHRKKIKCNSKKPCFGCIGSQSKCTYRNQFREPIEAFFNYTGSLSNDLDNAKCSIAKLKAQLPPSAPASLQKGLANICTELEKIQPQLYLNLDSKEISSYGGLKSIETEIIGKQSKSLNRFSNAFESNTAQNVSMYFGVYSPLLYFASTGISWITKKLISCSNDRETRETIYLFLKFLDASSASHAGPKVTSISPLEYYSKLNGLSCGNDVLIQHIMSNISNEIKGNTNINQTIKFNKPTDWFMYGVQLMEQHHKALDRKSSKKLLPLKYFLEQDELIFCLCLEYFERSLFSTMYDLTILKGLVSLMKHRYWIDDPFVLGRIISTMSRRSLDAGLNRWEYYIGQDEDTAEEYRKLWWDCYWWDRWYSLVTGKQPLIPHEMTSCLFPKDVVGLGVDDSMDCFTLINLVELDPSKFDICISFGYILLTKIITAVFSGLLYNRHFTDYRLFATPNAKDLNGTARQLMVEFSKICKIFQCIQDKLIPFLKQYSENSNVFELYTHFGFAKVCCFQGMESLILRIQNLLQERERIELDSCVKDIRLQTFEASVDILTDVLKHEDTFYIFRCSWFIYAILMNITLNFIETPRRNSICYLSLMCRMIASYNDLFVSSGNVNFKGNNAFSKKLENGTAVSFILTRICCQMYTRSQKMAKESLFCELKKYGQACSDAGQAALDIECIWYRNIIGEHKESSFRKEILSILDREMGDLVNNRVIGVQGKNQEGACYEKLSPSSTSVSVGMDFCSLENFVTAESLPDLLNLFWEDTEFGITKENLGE
Protocol: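 Universal 'all 10-mer' protein binding microarrays (Agilent AMADID 015681) probed with GST-tagged S. cerevisiae TFs (full-length or DBD) made by in vitro transcription/translation (PURExpress), about 100-200 nM. Bound TF was detected with fluorescent anti-GST. Each ungapped 8-mer (which stands for itself and its reverse complement) is scored by the PBM enrichment score (E-score), a modified Wilcoxon-Mann-Whitney statistic from -0.5 to +0.5, computed with the Universal PBM Analysis Suite. Scale: above 0.35 generally sequence-specific binding.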

| Sequence | PBM E-score |
| --- | --- |
| CGTACGCC | -0.0929 |
| CTCGTGGA | 0.0295 |
| GAGCGTGA | -0.0778 |
| ATAAGGCA | -0.123 |
| ATGAGTTG | 0.0868 |
| GAAAGCCA | -0.19 |
| AAAAATTA | 0.253 |
| CTGTCACA | -0.146 |
| ATGCGTGC | 0.0442 |
| GAATGTCC | 0.0884 |
| AAGGATCA | -0.0829 |
| ATGAAGAC | 0.0825 |
| TAGCTGGA | -0.265 |
| AACTTTAA | 0.262 |
| TGCAAACA | -0.168 |
| ACTAGGCG | -0.00043 |
| CGAATCGA | 0.22 |
| CGTTGCTC | -0.0485 |
| ATCCCGCG | 0.285 |
| GTTGTAGA | 0.191 |
| ACGATACC | 0.0646 |
| CGTGTCTC | -0.152 |
| AAGCAGAT | 0.0686 |
| CGTACACA | 0.028 |
| TGCGATAA | 0.108 |

| Sequence | PBM E-score |
| --- | --- |
| ATGTCACC | 0.0717 |
| ATGTAGAA | -0.0706 |
| AAATCGCC | 0.0957 |
| CAATCAAG | -0.0394 |
| CACAGTTA | 0.0151 |
| CGAAAAGA | 0.294 |
| AACGTGGC | -0.0733 |
| ACTCGGGA | 0.199 |
| CGATCCGC | 0.113 |
| AGTATTAC | 0.121 |
| CGGTAAAA | 0.305 |
| GACCTGCC | -0.157 |
| CACTAACG | -0.188 |
| CCTTCCTC | -0.149 |
| GAATATTC | 0.258 |
| GCGTGACC | -0.11 |
| AAGCCCAA | -0.106 |
| CACAGAGA | -0.113 |
| CAATCTAG | 0.0865 |
| CAACCGGA | 0.373 |
| TGAGCTCA | 0.189 |
| CACATGTG | -0.323 |
| CATCAACA | 0.0974 |
| AATGTCCG | 0.283 |
| AGACTGGA | -0.118 |

A stretch from the list above, for reference:

| Sequence | PBM E-score |
| --- | --- |
| CACAGTTA | 0.0151 |
| CGAAAAGA | 0.294 |
| AACGTGGC | -0.0733 |

More entries follow.

| Sequence | PBM E-score |
| --- | --- |
| CCCTCAGG | -0.239 |
| ATGATGTC | 0.088 |
| ACTGAAAT | 0.119 |
| AGTTACTG | 0.00807 |
| AGAAATGG | -0.138 |
| CCTGGCTA | -0.244 |
| CACAAGGC | -0.303 |
| CAGGAGTC | -0.148 |
| GGCTAATA | 0.0926 |
| AGAAAGGG | -0.00464 |
| CAAGCGCG | -0.0813 |
| AGGAGGTG | -0.237 |
| CGAGATCC | 0.0773 |
| ACAAGCTG | 0.0583 |
| CACCTAAA | 0.0424 |
| AAGCAGTA | -0.209 |
| GCGTAGCC | -0.215 |
| CATGGTCA | -0.00543 |
| ATCGAGAA | 0.0896 |
| AGTCACGG | 0.176 |
| AGGCGCAT | -0.0726 |
| CTAATTCC | 0.216 |
| CACACGCC | -0.0346 |
| GTCTTCTA | 0.0141 |
| CGCTTTGC | 0.128 |

Reformatted bar-delimited: entries from further up.
Sequence | PBM E-score
CCTGGCTA | -0.244
GGCTAATA | 0.0926
AGGAGGTG | -0.237
CGAGATCC | 0.0773
CACCTAAA | 0.0424
CATGGTCA | -0.00543
CGCTTTGC | 0.128

Additional results

| Sequence | PBM E-score |
| --- | --- |
| ACGTCCCG | -0.0216 |
| GATAGGCC | -0.147 |
| GATTACCC | 0.12 |
| CAAAATCG | 0.0713 |
| CCTAAGGC | -0.241 |
| GACCCGAA | 0.127 |
| CAATCATG | -0.0132 |
| ACCATGCA | -0.0738 |
| GATTCGCA | 0.131 |
| GCGAGACA | -0.188 |
| CAATCATC | -0.0321 |
| AGTTCTGG | -0.0406 |
| ACCGCCAT | -0.187 |
| AAGCCCAC | -0.139 |
| CTTCGCCA | -0.116 |
| ACAATGGC | -0.106 |
| GTACTGAA | 0.223 |
| CTGGCCGA | 0.129 |
| ACGCGTCC | 0.028 |
| AGCATTTA | 0.0356 |
| CTGGCAGC | -0.174 |
| CGGATCCC | 0.171 |
| AGACTTGC | -0.146 |
| AGCACCGC | -0.26 |
| AGCTGAAG | 0.0187 |

| Sequence | PBM E-score |
| --- | --- |
| TCATTCAA | 0.162 |
| GGAGTGAA | -0.0205 |
| GTGTCGGA | 0.132 |
| TAGAAGCA | 0.0361 |
| AGGTGTTG | -0.186 |
| ACCGCACC | 7e-05 |
| AACCATAA | -0.0372 |
| CCCAAACC | 0.00882 |
| CAATAATA | 0.229 |
| AAGTGGAA | 0.00951 |
| CAGCCTTA | -0.0157 |
| CGAACCTC | 0.0484 |
| AACGGTGC | 0.0104 |
| ACTGGGCC | 0.00476 |
| GGGACCTA | -0.0677 |
| CGCACACG | -0.0376 |
| AGAGTCTA | -0.168 |
| ATTTAAAA | 0.189 |
| GTCAAGAA | 0.0525 |
| ATTGTGAC | -0.0637 |
| CTGAGGGA | -0.138 |
| GCAGTTTA | -0.0641 |
| GTACGCAA | -0.067 |
| CCCGGCAC | 0.0863 |
| CCCAAGTA | -0.184 |

| Sequence | PBM E-score |
| --- | --- |
| CTAGCAGA | -0.00329 |
| AATCAAGG | 0.00846 |
| GGCATCAC | -0.113 |
| GGTATCAC | -0.105 |
| GTACAGCA | -0.00641 |
| ATACACAT | 0.0238 |
| ACAGATAC | 0.132 |
| AGGTTTTC | 0.0522 |
| AGCCTAGG | -0.143 |
| ACCTTAAA | 0.0181 |
| AATTCGGT | 0.301 |
| GTCACCTA | -0.292 |
| GTCAGTCA | -0.0772 |
| CTGTATAC | 0.119 |
| ACTTAATC | 0.125 |
| ACGATTGC | 0.116 |
| AAAGCGAC | 0.0442 |
| GGGAATAA | 0.125 |
| ATAAAAAG | 0.205 |
| CCATCGCC | -0.018 |
| CACGGTGC | 0.0187 |
| ACGACCCG | 0.0884 |
| ACGGGGGA | -0.252 |
| CCTATACA | -0.0663 |
| CGTCCCCA | -0.276 |

| Sequence | PBM E-score |
| --- | --- |
| GGATTTGA | 0.0506 |
| CTCTGCAC | -0.192 |
| AATACGCC | 0.0638 |
| AAAGCACT | -0.0205 |
| CCGCTATC | -0.0075 |
| GACGGTTA | -0.145 |
| ACAAGGAT | 0.0231 |
| GAATAATA | 0.234 |
| ACGGAACC | 0.329 |
| CTACGTAC | 0.0379 |
| CTGGTGAA | -0.0403 |
| CATTATCG | 0.0346 |
| ATCGGTCA | 0.0109 |
| AAGGTACA | -0.102 |
| AAAAGTCA | -0.0775 |
| CGCTAAAG | -0.0461 |
| ACTTGTGC | -0.103 |
| CAAAGAGA | 0.0946 |
| ATAACTCC | 0.0294 |
| AAATCCTC | -0.0657 |
| TCGTTGAA | 0.0561 |
| GCTGGCCC | -0.374 |
| CTTTACAC | 0.12 |
| AGATATGC | -0.0109 |
| CAGCAGAG | -0.138 |

A second format for some results above.
Sequence,PBM E-score
AGACTGGA,-0.118
CCCTCAGG,-0.239
ATGATGTC,0.088
ACTGAAAT,0.119
AGTTACTG,0.00807

Further results:

| Sequence | PBM E-score |
| --- | --- |
| AAGCGTCC | -0.0369 |
| CTGCACCC | -0.153 |
| CGAGGAAA | 0.177 |
| ATGACGGC | 0.0199 |
| CTATTTTC | 0.144 |
| GCGCTGAC | -0.106 |
| CATATACA | 0.175 |
| ACCGAGCT | 0.206 |
| GGATGCCC | -0.125 |
| CTAGGTAC | -0.0435 |
| ATGGTCAA | 0.0563 |
| CGCAGACA | -0.00145 |
| CATAGTGA | -0.0892 |
| CATCCCAG | -0.114 |
| ATATTCCA | 0.16 |
| CACGTATG | 0.0807 |
| CGGAATCA | 0.306 |
| GGCCTTCA | -0.0859 |
| AAATGGAG | 0.043 |
| CGTACCGC | 0.028 |
| ACACGGGA | -0.00121 |
| AACCGACA | 0.212 |
| CAATTTGG | -0.0376 |
| GCTTGTCA | 0.174 |
| CTCCCACA | -0.184 |

| Sequence | PBM E-score |
| --- | --- |
| AACACTTC | 0.0993 |
| ACCACCCT | -0.179 |
| CTATGGGC | -0.148 |
| ATCGGCAC | 0.27 |
| CCCCGCGC | -0.135 |
| GCCCGGGA | 0.282 |
| ATAAATTC | 0.203 |
| AACAAGGT | -0.0263 |
| AAGTCTAC | -0.224 |
| CCGCACTC | 0.0103 |
| CAGGCTAC | -0.143 |
| CGCATATC | 0.145 |
| CTGGTCAC | -0.229 |
| CCACACCC | -0.124 |
| CATGATCG | 0.05 |
| GCCCCAGA | -0.205 |
| TACTCCCA | 0.107 |
| CGGCTAGA | 0.306 |
| ACCGGACA | 0.122 |
